This passage reports binding results from US20090068195A1.

The chains behind the UniProt entries cited, without tags or fusion partners. Where a name states a change or a piece, a line headed by the entry shows the natural chain unless it says otherwise.
UniProt Q5I6E4: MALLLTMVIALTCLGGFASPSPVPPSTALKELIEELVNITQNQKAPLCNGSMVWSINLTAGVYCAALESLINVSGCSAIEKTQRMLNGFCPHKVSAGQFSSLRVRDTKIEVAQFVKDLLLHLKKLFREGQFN

These are yes or no findings as the source states them, for the method shown. Some entries that bind do so weakly or less than the wild type. Sequences can lack the tags named with a protein.

The target of assay [1] is T1, recombinant soluble human IL-13Rα1-Fc (human) (UniProt P78552).
T1 sequence: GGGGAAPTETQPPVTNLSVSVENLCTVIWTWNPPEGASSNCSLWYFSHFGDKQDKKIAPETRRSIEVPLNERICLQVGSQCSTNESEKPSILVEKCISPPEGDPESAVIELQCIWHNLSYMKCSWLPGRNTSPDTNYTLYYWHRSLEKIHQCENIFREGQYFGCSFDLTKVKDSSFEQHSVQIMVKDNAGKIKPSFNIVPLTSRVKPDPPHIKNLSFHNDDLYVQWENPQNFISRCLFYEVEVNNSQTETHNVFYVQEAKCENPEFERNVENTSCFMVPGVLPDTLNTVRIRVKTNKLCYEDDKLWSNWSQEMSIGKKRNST
Description: ELISA: FLAG-tagged NHP IL-13 on plate-coated IL-13Ralpha1-Fc.

For assay [2], the target named is T2, sIL-13Rα2-Fc (soluble human IL-13 receptor alpha 2 Fc fusion) (human) (UniProt Q14627).
T2 sequence (looked up): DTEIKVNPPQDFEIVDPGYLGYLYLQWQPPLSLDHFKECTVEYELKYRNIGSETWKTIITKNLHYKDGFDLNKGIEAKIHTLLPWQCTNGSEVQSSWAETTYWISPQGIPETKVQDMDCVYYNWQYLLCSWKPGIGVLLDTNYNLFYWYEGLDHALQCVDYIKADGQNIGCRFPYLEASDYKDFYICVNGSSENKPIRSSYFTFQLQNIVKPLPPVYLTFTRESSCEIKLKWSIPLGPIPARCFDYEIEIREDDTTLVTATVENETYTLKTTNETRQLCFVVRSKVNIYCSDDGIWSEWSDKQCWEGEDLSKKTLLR
The assay is described as follows: ELISA: FLAG-tagged NHP IL-13 on plate-coated IL-13Ralpha2-Fc. (In general: An ELISA detects its analyte on a solid surface through an enzyme-linked reagent.)

Turning to “FLAG-tagged NHP IL-13 (from UniProt Q5I6E4 21-132) (ligand)”, the binding result in assay [1] and in assay [2] was “binds” throughout.
